Measurements taken from the supplement of paper PMC10077471.
Over roughly 1,900 compounds, “excess over highest single agent (ExcessHSA) synergy score, 6x6 matrix” has its median near -83; the lowest 2% begin near -370. This is one part of the list.

What follows are molecules tested on NCI-H446 (assay: excess over highest single agent (ExcessHSA) synergy score, 6x6 matrix; higher = less synergy (more negative = stronger synergy)). Details: 72 h; CellTiter-Glo viability.

Compound	excess over highest single agent
O=C(O)CCNc1cc(N2CCc3ccccc3CC2)nc(-c2ccccn2)n1 + Cc1sc2c(c1C)C(c1ccc(Cl)cc1)=N[C@@H](CC(=O)OC(C)(C)C)c1nnc(C)n1-2 [NCGC00250412-19]	-73
C=CC[C@@H]1/C=C(\C)C[C@H](C)C[C@H](OC)[C@H]2O[C@@](O)(C(=O)C(=O)N3CCCC[C@H]3C(=O)O[C@H](/C(C)=C/[C@@H]3CC[C@@H](O)[C@H](OC)C3)[C@H](C)[C@@H](O)CC1=O)[C@H](C)C[C@@H]2OC + Cc1sc2c(c1C)C(c1ccc(Cl)cc1)=N[C@@H](CC(=O)OC(C)(C)C)c1nnc(C)n1-2 [NCGC00250412-19]	-143
COc1ccc2[nH]cc(CCNC(C)=O)c2c1 + Cc1sc2c(c1C)C(c1ccc(Cl)cc1)=N[C@@H](CC(=O)OC(C)(C)C)c1nnc(C)n1-2 [NCGC00250412-19]	1.14
Cc1ccc(C(=O)c2cc(O)c(O)c([N+](=O)[O-])c2)cc1 + Cc1sc2c(c1C)C(c1ccc(Cl)cc1)=N[C@@H](CC(=O)OC(C)(C)C)c1nnc(C)n1-2 [NCGC00250412-19]	-117
CN1C2CCCC1CC(NC(=O)c1nn(C)c3ccccc13)C2 (stereo not drawn) + Cc1sc2c(c1C)C(c1ccc(Cl)cc1)=N[C@@H](CC(=O)OC(C)(C)C)c1nnc(C)n1-2 [NCGC00250412-19]	-119
CC(=O)Nc1ccc(OC[C@](C)(O)C(=O)Nc2ccc([N+](=O)[O-])c(C(F)(F)F)c2)cc1 + Cc1sc2c(c1C)C(c1ccc(Cl)cc1)=N[C@@H](CC(=O)OC(C)(C)C)c1nnc(C)n1-2 [NCGC00250412-19]	270
CCN(CC)CC#CCOC(=O)C(O)(c1ccccc1)C1CCCCC1 (stereo not drawn) + Cc1sc2c(c1C)C(c1ccc(Cl)cc1)=N[C@@H](CC(=O)OC(C)(C)C)c1nnc(C)n1-2 [NCGC00250412-19]	-71.2
Cc1ncc([N+](=O)[O-])n1CCO + Cc1sc2c(c1C)C(c1ccc(Cl)cc1)=N[C@@H](CC(=O)OC(C)(C)C)c1nnc(C)n1-2 [NCGC00250412-19]	70.4
OC(CCN1CCCCC1)(c1ccccc1)C1CC2C=CC1C2 (stereo not drawn) + Cc1sc2c(c1C)C(c1ccc(Cl)cc1)=N[C@@H](CC(=O)OC(C)(C)C)c1nnc(C)n1-2 [NCGC00250412-19]	-37.5
CN(C)c1ccc(C(=O)NCCCCCCC(=O)NO)cc1 + Cc1sc2c(c1C)C(c1ccc(Cl)cc1)=N[C@@H](CC(=O)OC(C)(C)C)c1nnc(C)n1-2 [NCGC00250412-19]	-250
C[C@H]1[C@@H](O)O[C@@H]2O[C@@]3(C)CC[C@H]4[C@H](C)CC[C@@H]1[C@@]24OO3 + Cc1sc2c(c1C)C(c1ccc(Cl)cc1)=N[C@@H](CC(=O)OC(C)(C)C)c1nnc(C)n1-2 [NCGC00250412-19]	-199
COc1ccc(-c2oc3c(CC=C(C)C)c(O[C@@H]4O[C@H](CO)[C@@H](O)[C@H](O)[C@H]4O)cc(O)c3c(=O)c2O[C@@H]2O[C@@H](C)[C@H](O)[C@@H](O)[C@H]2O)cc1 + Cc1sc2c(c1C)C(c1ccc(Cl)cc1)=N[C@@H](CC(=O)OC(C)(C)C)c1nnc(C)n1-2 [NCGC00250412-19]	17.3
CCn1cc(C(=O)O)c(=O)c2ccc(C)nc21 + Cc1sc2c(c1C)C(c1ccc(Cl)cc1)=N[C@@H](CC(=O)OC(C)(C)C)c1nnc(C)n1-2 [NCGC00250412-19]	-189
CCO[C@@H]1OC(=O)C[C@@H]1NC(=O)[C@@H]1CCCN1C(=O)[C@@H](NC(=O)c1ccc(N)c(Cl)c1)C(C)(C)C + Cc1sc2c(c1C)C(c1ccc(Cl)cc1)=N[C@@H](CC(=O)OC(C)(C)C)c1nnc(C)n1-2 [NCGC00250412-19]	-51.3
COc1cc2nc(N3CCN(C(=O)c4ccco4)CC3)nc(N)c2cc1OC + Cc1sc2c(c1C)C(c1ccc(Cl)cc1)=N[C@@H](CC(=O)OC(C)(C)C)c1nnc(C)n1-2 [NCGC00250412-19]	55.3
NCCS(=O)(=O)O + Cc1sc2c(c1C)C(c1ccc(Cl)cc1)=N[C@@H](CC(=O)OC(C)(C)C)c1nnc(C)n1-2 [NCGC00250412-19]	-91.5
COc1nc(C)nc(Cl)c1NC1=NCCN1 + Cc1sc2c(c1C)C(c1ccc(Cl)cc1)=N[C@@H](CC(=O)OC(C)(C)C)c1nnc(C)n1-2 [NCGC00250412-19]	-61.6
C[C@](O)(COc1ccc(C#N)cc1)C(=O)Nc1ccc(C#N)c(C(F)(F)F)c1 + Cc1sc2c(c1C)C(c1ccc(Cl)cc1)=N[C@@H](CC(=O)OC(C)(C)C)c1nnc(C)n1-2 [NCGC00250412-19]	-172
Cc1ccc(NC(=O)c2ccc(CN3CCN(C)CC3)cc2)cc1Nc1nc(-c2cccnc2)cs1 + Cc1sc2c(c1C)C(c1ccc(Cl)cc1)=N[C@@H](CC(=O)OC(C)(C)C)c1nnc(C)n1-2 [NCGC00250412-19]	130

Looked up one by one from the entries so far, 3 records:
Compound	excess over highest single agent
CN1C2CCCC1CC(NC(=O)c1nn(C)c3ccccc13)C2 (stereo not drawn) + Cc1sc2c(c1C)C(c1ccc(Cl)cc1)=N[C@@H](CC(=O)OC(C)(C)C)c1nnc(C)n1-2 [NCGC00250412-19]	-119
COc1ccc2[nH]cc(CCNC(C)=O)c2c1 + Cc1sc2c(c1C)C(c1ccc(Cl)cc1)=N[C@@H](CC(=O)OC(C)(C)C)c1nnc(C)n1-2 [NCGC00250412-19]	1.14
COc1nc(C)nc(Cl)c1NC1=NCCN1 + Cc1sc2c(c1C)C(c1ccc(Cl)cc1)=N[C@@H](CC(=O)OC(C)(C)C)c1nnc(C)n1-2 [NCGC00250412-19]	-61.6

The list goes on:

Compound	excess over highest single agent
CCCC[C@@H](C=O)NC(=O)[C@H](CC(C)C)NC(=O)OCc1ccccc1 + Cc1sc2c(c1C)C(c1ccc(Cl)cc1)=N[C@@H](CC(=O)OC(C)(C)C)c1nnc(C)n1-2 [NCGC00250412-19]	-104
Cc1ccc(S(=O)(=O)NC(=O)NN2CC3CCCC3C2)cc1 (stereo not drawn) + Cc1sc2c(c1C)C(c1ccc(Cl)cc1)=N[C@@H](CC(=O)OC(C)(C)C)c1nnc(C)n1-2 [NCGC00250412-19]	-35.8
CCN(CC)CCOc1ccc(Cc2ccccc2)cc1 + Cc1sc2c(c1C)C(c1ccc(Cl)cc1)=N[C@@H](CC(=O)OC(C)(C)C)c1nnc(C)n1-2 [NCGC00250412-19]	-138
O=c1c(O)c(-c2cc(O)c(O)c(O)c2)oc2cc(O)cc(O)c12 + Cc1sc2c(c1C)C(c1ccc(Cl)cc1)=N[C@@H](CC(=O)OC(C)(C)C)c1nnc(C)n1-2 [NCGC00250412-19]	-52.1
CC(C)C[C@@H](C=O)NC(=O)[C@H](CC(C)C)NC(=O)[C@H](CC(C)C)NC(=O)OCc1ccccc1 + Cc1sc2c(c1C)C(c1ccc(Cl)cc1)=N[C@@H](CC(=O)OC(C)(C)C)c1nnc(C)n1-2 [NCGC00250412-19]	-203
N=C(N)NC(=N)N1CCOCC1 + Cc1sc2c(c1C)C(c1ccc(Cl)cc1)=N[C@@H](CC(=O)OC(C)(C)C)c1nnc(C)n1-2 [NCGC00250412-19]	-1.59
CCN(CC)Cc1ccc2cc(COC(=O)Nc3ccc(C(=O)NO)cc3)ccc2c1 + Cc1sc2c(c1C)C(c1ccc(Cl)cc1)=N[C@@H](CC(=O)OC(C)(C)C)c1nnc(C)n1-2 [NCGC00250412-19]	-214
O=c1c(-c2ccc(O)cc2)coc2cc(O[C@@H]3O[C@H](CO)[C@@H](O)[C@H](O)[C@H]3O)cc(O)c12 + Cc1sc2c(c1C)C(c1ccc(Cl)cc1)=N[C@@H](CC(=O)OC(C)(C)C)c1nnc(C)n1-2 [NCGC00250412-19]	22.1
CCC[C@H](N[C@@H](C)C(=O)N1[C@H](C(=O)O)C[C@@H]2CCCC[C@@H]21)C(=O)OCC + Cc1sc2c(c1C)C(c1ccc(Cl)cc1)=N[C@@H](CC(=O)OC(C)(C)C)c1nnc(C)n1-2 [NCGC00250412-19]	-74.7
Nc1ccn([C@@H]2CO[C@H](CO)O2)c(=O)n1 + Cc1sc2c(c1C)C(c1ccc(Cl)cc1)=N[C@@H](CC(=O)OC(C)(C)C)c1nnc(C)n1-2 [NCGC00250412-19]	-182
CN(C)CCc1c[nH]c2ccc(Cn3cncn3)cc12 + Cc1sc2c(c1C)C(c1ccc(Cl)cc1)=N[C@@H](CC(=O)OC(C)(C)C)c1nnc(C)n1-2 [NCGC00250412-19]	10.9
O=C(c1ccc(C(=O)N2CCC(N3CCCC3)CC2)c(Nc2ccccc2)c1)N1CCC(N2CCCC2)CC1 + Cc1sc2c(c1C)C(c1ccc(Cl)cc1)=N[C@@H](CC(=O)OC(C)(C)C)c1nnc(C)n1-2 [NCGC00250412-19]	-240
OC[C@H]1O[C@@H](Oc2ccc(O)cc2)[C@H](O)[C@@H](O)[C@@H]1O + Cc1sc2c(c1C)C(c1ccc(Cl)cc1)=N[C@@H](CC(=O)OC(C)(C)C)c1nnc(C)n1-2 [NCGC00250412-19]	30.8
CS(=O)(=O)c1cc(F)cc2c3c(n(Cc4ccc(Cl)cc4)c12)[C@@H](CC(=O)O)CC3 + Cc1sc2c(c1C)C(c1ccc(Cl)cc1)=N[C@@H](CC(=O)OC(C)(C)C)c1nnc(C)n1-2 [NCGC00250412-19]	-104
CCNC(=O)C[C@H]1N=C(c2ccc(Cl)cc2)c2cc(OC)ccc2-n2c(C)nnc21 + Cc1sc2c(c1C)C(c1ccc(Cl)cc1)=N[C@@H](CC(=O)OC(C)(C)C)c1nnc(C)n1-2 [NCGC00250412-19]	344
CN(NC(=O)CC(=O)NN(C)C(=S)c1ccccc1)C(=S)c1ccccc1 + Cc1sc2c(c1C)C(c1ccc(Cl)cc1)=N[C@@H](CC(=O)OC(C)(C)C)c1nnc(C)n1-2 [NCGC00250412-19]	-166
COc1cccc(OC)c1-c1cc(C(=O)NC2(C(=O)O)C3CC4CC(C3)CC2C4)nn1-c1ccnc2cc(Cl)ccc12 (stereo not drawn) + Cc1sc2c(c1C)C(c1ccc(Cl)cc1)=N[C@@H](CC(=O)OC(C)(C)C)c1nnc(C)n1-2 [NCGC00250412-19]	-56.6
CO[C@@H]1[C@@H](OC(N)=O)[C@@H](O)[C@H](Oc2ccc3c(O)c(NC(=O)c4ccc(O)c(CC=C(C)C)c4)c(=O)oc3c2C)OC1(C)C + Cc1sc2c(c1C)C(c1ccc(Cl)cc1)=N[C@@H](CC(=O)OC(C)(C)C)c1nnc(C)n1-2 [NCGC00250412-19]	165
O=Nc1c(-c2c(O)[nH]c3cc(Br)ccc23)[nH]c2ccccc12 + Cc1sc2c(c1C)C(c1ccc(Cl)cc1)=N[C@@H](CC(=O)OC(C)(C)C)c1nnc(C)n1-2 [NCGC00250412-19]	84.3
